Results are given in words; binding and its absence hold for the method and conditions named. In cells and extracts the contact can be indirect. Some results given as binding are weak or reduced against the parent protein; the word gives no strength.

Sequences of proteins named here, by UniProt entry; tags and fusion partners are left off.
UniProt Q13526: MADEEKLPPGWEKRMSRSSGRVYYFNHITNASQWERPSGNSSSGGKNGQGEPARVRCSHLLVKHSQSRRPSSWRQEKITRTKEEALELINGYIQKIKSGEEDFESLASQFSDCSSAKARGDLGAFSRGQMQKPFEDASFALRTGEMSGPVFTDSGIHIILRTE

The assay deals with T1, Mos (Xenopus, in vitro translated), incubated in mitotic extract (Xenopus) (UniProt P12965).
T1 sequence (phosphorylated by incubation in mitotic Xenopus extract; sites not stated, looked up): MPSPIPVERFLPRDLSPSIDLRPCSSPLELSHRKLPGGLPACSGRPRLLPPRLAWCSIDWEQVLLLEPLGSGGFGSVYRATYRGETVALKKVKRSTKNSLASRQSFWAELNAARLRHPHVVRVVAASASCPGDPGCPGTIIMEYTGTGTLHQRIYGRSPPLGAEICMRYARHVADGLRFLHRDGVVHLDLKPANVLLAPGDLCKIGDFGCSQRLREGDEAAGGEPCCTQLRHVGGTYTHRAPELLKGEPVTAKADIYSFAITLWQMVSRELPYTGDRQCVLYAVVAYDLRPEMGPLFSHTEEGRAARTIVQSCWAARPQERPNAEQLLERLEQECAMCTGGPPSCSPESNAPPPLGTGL
The assay can be described thus: GST-Pin1 bead pull-down of in vitro translated protein incubated in mitotic Xenopus extract.

For the substance “GST-Pin1 (glutathione-S-transferase fusion protein containing full length Pin1) (from UniProt Q13526 1-163) (enzyme)”, the binding entry is “binds”.

The record behind these values is US6462173B1, “Inhibitors of phosphoserine and phosphothreonine-proline-specific isomerases” (Max-Planck-Gesellschaft zur Forderung der, priority 1997, dated 2002).
